# Tested on: LmrR expressed in L. lactis Trp auxotroph strain PA1002
# Experiment: Biosynthetic incorporation of Trp analogs into LmrR, MALDI-TOF after tryptic digestion
# Design: species or system Lactococcus lactis
# Settings: MALDI-TOF peak areas; for Incorporation efficiency, Position 67: Trp analog at position 67 in LmrR; for Incorporation efficiency, Position 96: Trp analog at position 96 in LmrR
SMILES,"Incorporation efficiency, Position 67 [%]","Incorporation efficiency, Position 96 [%]"
"N[C@@H](Cc1c[nH]c2c(F)c(F)c(F)c(F)c12)C(=O)O [4,5,6,7tetraFW, 4,5,6,7-tetrafluorotryptophan]",76,> 96
"N[C@@H](Cc1c[nH]c2cc(F)c(F)cc12)C(=O)O [5,6diFW, 5,6-difluorotryptophan]",> 99,> 99

# Source: PMC9354243, “The Role of Tryptophan in π Interactions in Proteins: An Experimental Approach” (Journal of the American Chemical Society, 2022)
